Assay results: paper PMC8744257
Results are given in words; binding and its absence hold for the method and conditions named. Binding seen in cells or lysates may run through a third protein. Some entries that bind do so weakly or less than the wild type. Where a sequence is shown, tags or fusion partners need not be part of it. Blank lines part the entries; values can stand above or below the binder they belong to.

Key:
[1] = molecular target: T1, BioID2-tagged wildtype human CLUH (BioID2-3xHA-CLUH) (human) (UniProt O75153); assay: co-IP; anti-HA magnetic beads on total extracts of HCT116 stably expressing BioID2-3xHA-tagged CLUH, CLUH∆TPR or GFP; endogenous CLUH and SPAG5 detected by western blot; also after SPAG5 knock-down (Fig. S4)
T1 sequence: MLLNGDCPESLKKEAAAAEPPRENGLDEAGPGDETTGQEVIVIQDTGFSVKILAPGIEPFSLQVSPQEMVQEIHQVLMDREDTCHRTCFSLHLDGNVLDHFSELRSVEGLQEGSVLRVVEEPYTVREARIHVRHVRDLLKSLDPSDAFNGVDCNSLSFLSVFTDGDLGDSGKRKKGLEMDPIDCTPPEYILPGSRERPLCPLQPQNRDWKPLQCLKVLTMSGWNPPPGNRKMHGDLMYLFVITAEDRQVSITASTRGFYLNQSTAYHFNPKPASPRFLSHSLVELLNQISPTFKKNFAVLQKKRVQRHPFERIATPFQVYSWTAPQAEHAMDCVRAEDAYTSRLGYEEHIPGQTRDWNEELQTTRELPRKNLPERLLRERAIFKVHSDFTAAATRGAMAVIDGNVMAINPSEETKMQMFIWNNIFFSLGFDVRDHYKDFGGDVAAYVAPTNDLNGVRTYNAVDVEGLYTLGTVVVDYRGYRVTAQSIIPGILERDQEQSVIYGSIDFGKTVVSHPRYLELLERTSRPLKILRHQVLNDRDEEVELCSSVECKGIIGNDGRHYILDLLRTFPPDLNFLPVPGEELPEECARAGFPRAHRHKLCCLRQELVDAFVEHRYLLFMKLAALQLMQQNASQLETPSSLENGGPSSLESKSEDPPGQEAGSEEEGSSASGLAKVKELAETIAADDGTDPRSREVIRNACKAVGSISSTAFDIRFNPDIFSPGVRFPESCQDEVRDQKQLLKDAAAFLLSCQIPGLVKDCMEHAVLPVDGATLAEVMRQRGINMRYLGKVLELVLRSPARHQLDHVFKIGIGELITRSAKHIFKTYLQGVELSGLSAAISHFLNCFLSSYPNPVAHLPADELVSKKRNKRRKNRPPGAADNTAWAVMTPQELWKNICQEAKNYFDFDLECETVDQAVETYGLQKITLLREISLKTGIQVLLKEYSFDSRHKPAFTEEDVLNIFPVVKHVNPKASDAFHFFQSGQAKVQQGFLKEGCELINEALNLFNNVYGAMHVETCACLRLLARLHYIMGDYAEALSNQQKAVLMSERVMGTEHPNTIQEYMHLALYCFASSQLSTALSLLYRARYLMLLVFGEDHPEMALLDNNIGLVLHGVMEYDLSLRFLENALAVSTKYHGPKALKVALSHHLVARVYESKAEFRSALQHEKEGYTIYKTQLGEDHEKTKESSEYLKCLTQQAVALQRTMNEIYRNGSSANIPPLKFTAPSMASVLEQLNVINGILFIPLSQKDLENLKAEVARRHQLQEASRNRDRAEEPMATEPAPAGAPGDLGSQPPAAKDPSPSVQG

[2] = molecular target: T2, ectopically expressed 3xHA-CLUH protein (co-expressed with GFP-tagged proteins) (not stated (human or mouse cDNA cloned)) (UniProt Q5SW19); assay: co-IP; 3xHA-CLUH as bait in HCT116 expressing GFP-SPAG5 or GFP-KNSTRN; extracts with or without RNase treatment before the pull-down (Figs. S2A-C)
T2 sequence: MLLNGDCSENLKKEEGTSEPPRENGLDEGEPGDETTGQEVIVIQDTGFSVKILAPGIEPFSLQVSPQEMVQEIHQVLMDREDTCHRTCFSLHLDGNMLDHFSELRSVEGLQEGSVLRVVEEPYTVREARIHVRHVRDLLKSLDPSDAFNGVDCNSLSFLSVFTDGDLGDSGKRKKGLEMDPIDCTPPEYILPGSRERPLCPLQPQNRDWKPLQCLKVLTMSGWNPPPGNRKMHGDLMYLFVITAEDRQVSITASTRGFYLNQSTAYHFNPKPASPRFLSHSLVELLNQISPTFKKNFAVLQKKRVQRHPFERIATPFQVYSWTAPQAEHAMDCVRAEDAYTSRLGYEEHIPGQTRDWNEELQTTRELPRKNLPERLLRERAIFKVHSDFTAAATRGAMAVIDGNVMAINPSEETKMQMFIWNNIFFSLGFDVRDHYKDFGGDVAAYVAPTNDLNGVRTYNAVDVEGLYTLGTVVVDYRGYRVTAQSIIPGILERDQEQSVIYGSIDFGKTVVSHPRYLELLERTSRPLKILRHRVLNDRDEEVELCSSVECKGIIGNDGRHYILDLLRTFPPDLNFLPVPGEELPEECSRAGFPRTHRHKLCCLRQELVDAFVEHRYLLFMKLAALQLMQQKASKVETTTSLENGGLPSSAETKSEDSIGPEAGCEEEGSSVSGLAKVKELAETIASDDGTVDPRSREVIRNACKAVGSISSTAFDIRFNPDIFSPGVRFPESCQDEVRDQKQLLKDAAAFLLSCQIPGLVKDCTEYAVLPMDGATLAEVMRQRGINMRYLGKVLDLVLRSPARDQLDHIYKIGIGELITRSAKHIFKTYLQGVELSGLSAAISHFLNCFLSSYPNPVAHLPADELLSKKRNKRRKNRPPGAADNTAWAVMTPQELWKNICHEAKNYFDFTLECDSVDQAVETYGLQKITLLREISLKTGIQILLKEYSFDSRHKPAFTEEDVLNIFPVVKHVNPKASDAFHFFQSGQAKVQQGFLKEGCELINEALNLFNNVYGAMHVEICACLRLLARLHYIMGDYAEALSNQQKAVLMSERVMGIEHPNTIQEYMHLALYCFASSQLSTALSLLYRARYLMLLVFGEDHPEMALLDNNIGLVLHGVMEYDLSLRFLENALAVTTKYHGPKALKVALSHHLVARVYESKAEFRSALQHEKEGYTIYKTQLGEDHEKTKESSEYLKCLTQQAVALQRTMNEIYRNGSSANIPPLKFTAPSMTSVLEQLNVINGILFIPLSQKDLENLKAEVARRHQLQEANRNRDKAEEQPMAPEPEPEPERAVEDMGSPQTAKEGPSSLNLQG

binding [1]: binds
B1: SPAG5 (endogenous, HCT116) (protein, UniProt Q96R06 1-1193)
chain: MWRVKKLSLSLSPSPQTGKPSMRTPLRELTLQPGALTNSGKRSPACSSLTPSLCKLGLQEGSNNSSPVDFVNNKRTDLSSEHFSHSSKWLETCQHESDEQPLDPIPQISSTPKTSEEAVDPLGNYMVKTIVLVPSPLGQQQDMIFEARLDTMAETNSISLNGPLRTDDLVREEVAPCMGDRFSEVAAVSEKPIFQESPSHLLEESPPNPCSEQLHCSKESLSSRTEAVREDLVPSESNAFLPSSVLWLSPSTALAADFRVNHVDPEEEIVEHGAMEEREMRFPTHPKESETEDQALVSSVEDILSTCLTPNLVEMESQEAPGPAVEDVGRILGSDTESWMSPLAWLEKGVNTSVMLENLRQSLSLPSMLRDAAIGTTPFSTCSVGTWFTPSAPQEKSTNTSQTGLVGTKHSTSETEQLLCGRPPDLTALSRHDLEDNLLSSLVILEVLSRQLRDWKSQLAVPHPETQDSSTQTDTSHSGITNKLQHLKESHEMGQALQQARNVMQSWVLISKELISLLHLSLLHLEEDKTTVSQESRRAETLVCCCFDLLKKLRAKLQSLKAEREEARHREEMALRGKDAAEIVLEAFCAHASQRISQLEQDLASMREFRGLLKDAQTQLVGLHAKQEELVQQTVSLTSTLQQDWRSMQLDYTTWTALLSRSRQLTEKLTVKSQQALQERDVAIEEKQEVSRVLEQVSAQLEECKGQTEQLELENSRLATDLRAQLQILANMDSQLKELQSQHTHCAQDLAMKDELLCQLTQSNEEQAAQWQKEEMALKHMQAELQQQQAVLAKEVRDLKETLEFADQENQVAHLELGQVECQLKTTLEVLRERSLQCENLKDTVENLTAKLASTIADNQEQDLEKTRQYSQKLGLLTEQLQSLTLFLQTKLKEKTEQETLLLSTACPPTQEHPLPNDRTFLGSILTAVADEEPESTPVPLLGSDKSAFTRVASMVSLQPAETPGMEESLAEMSIMTTELQSLCSLLQESKEEAIRTLQRKICELQARLQAQEEQHQEVQKAKEADIEKLNQALCLRYKNEKELQEVIQQQNEKILEQIDKSGELISLREEVTHLTRSLRRAETETKVLQEALAGQLDSNCQPMATNWIQEKVWLSQEVDKLRVMFLEMKNEKEKLMIKFQSHRNILEENLRRSDKELEKLDDIVQHIYKTLLSIPEVVRGCKELQGLLEFLS

binding [2]: binds
B2: GFP-SPAG5 (protein, UniProt Q96R06 1-1193)
chain: B1 chain

binding [2]: binds
B3: GFP-KNSTRN (protein, UniProt Q9Y448 1-316)
chain: MAAPEAPPLDRVFRTTWLSTECDSHPLPPSYRKFLFETQAADLAGGTTVAAGNLLNESEKDCGQDRRAPGVQPCRLVTMTSVVKTVYSLQPPSALSGGQPADTQTRATSKSLLPVRSKEVDVSKQLHSGGPENDVTKITKLRRENGQMKATDTATRRNVRKGYKPLSKQKSEEELKDKNQLLEAVNKQLHQKLTETQGELKDLTQKVELLEKFRDNCLAILESKGLDPALGSETLASRQESTTDHMDSMLLLETLQEELKLFNETAKKQMEELQALKVKLEMKEERVRFLEQQTLCNNQVNDLTTALKEMEQLLEM
